# The other results are listed elsewhere or left out. Further columns of the screen follow, without active or inactive calls. Compounds called inactive in the main read-out are mostly missing here. The note in brackets gives the kind of curve behind each potency; many fits are weak.
# Assay: qHTS Assay for Lipid Storage Modulators in Drosophila S3 Cells;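 on cell number change: cells counted by Cell Tracker Red CMTPX staining in the red channel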
# Details: BODIPY lipid droplet fluorescence, 18-24 h; for cell number change: measured here: cell count max response, cells fed with added oleic acid
# Summary of the method: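 Drosophila S3 cells got compounds at several concentrations plus oleic acid (400 uM solution). Laser-scanning cytometry with 488 nm excitation read lipid droplets at 500-530 nm and cells at 575-640 nm. Percent activity was relative to 20 uM Triacsin C.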
# [1] = measured here: lipid fluorescence (Fed channel) AC50, cells fed with added oleic acid
# [2] = measured here: cell number channel AC50, cells fed with added oleic acid
SMILES,AC50 [1],cell number change [%],AC50 [2]
COc1ccc(C)c2sc(NC(=O)CCS(=O)(=O)c3ccccc3)nc12,"29.1 µM [falling, single point]",–,–
CC(=O)Nc1ccc(S(=O)(=O)NCCC(=O)OCC(=O)c2ccc(Br)cc2)cc1,"7.31 µM [falling, partial curve, poor fit]",3.84,–
Cc1c(C(=O)N2CCOCC2)sc(NC(=O)Cc2ccccc2)c1C#N,"0.00651 µM [rising, full curve, poor fit]",16.1,–
Cc1cc(C)c(NC(=O)Cn2c(=O)n(Cc3ccco3)c(=O)c3ccccc32)c(C)c1,–,–,"0.082 µM [rising, full curve, poor fit]"
O=C(CNCCCO)Nc1cc(C(F)(F)F)cc(NC(=O)CNCCCO)c1Cl,"0.517 µM [falling, full curve]",34.3,"23.1 µM [rising, single point]"
COc1ccc(N2CCN(c3nc4ccccc4nc3NS(=O)(=O)c3ccccc3)CC2)cc1,"6.51 µM [rising, partial curve]",46.6,"2.31 µM [rising, partial curve, poor fit]"
COCCCNC(=O)CCc1c(C)nc2c(c(C)nn2-c2ccc(C)cc2)c1C,–,–,"0.411 µM [falling, single point]"
COc1ccc(CSCC(=O)N/N=C/c2ccc(OCC(=O)N3CCCCC3)cc2)cc1,"6.51 µM [rising, single point]",16.5,–
CCS(=O)(=O)NCC(c1ccco1)N1CCN(c2ccc(F)cc2)CC1 (stereo not given),–,30.9,"32.6 µM [rising, single point]"
COc1ccc(CNC(=O)CCS(=O)(=O)c2ccc3c(c2)CCN3C(C)=O)cc1,"0.517 µM [rising, partial curve, poor fit]",-28.1,–
COc1ccc(Cl)cc1C(=O)Nc1nc2ccccc2[nH]1,"6.51 µM [rising, single point]",13.1,–
COc1ccc(NC(=O)CN(C)C(=O)c2ccc(COc3ccccc3)o2)cc1,–,-11.3,–
Cc1ccc(C(=O)COC(=O)c2n[nH]c(=O)c3ccccc23)cc1,"0.731 µM [falling, single point]",-7.82,–
O=C(NC(=S)Nc1ccccc1)c1csnn1,"1.46 µM [rising, partial curve]",–,–
FC(F)(F)C(Oc1nc(NC2CCCCC2)nc(N2CCOCC2)n1)C(F)(F)F,"25.9 µM [falling, partial curve]",-14.1,–
Nc1ncn(C(=O)c2ccco2)n1,"14.6 µM [falling, partial curve]",-59.6,"29.1 µM [falling, single point]"
O=C(CCN1CCN(C/C=C/c2ccccc2)CC1)Nc1ccccc1F,–,33.2,"23.1 µM [rising, single point]"
Cc1ccc([N+](=O)[O-])cc1N(CC(=O)Nc1ccc(S(=O)(=O)Nc2cccc(C(F)(F)F)c2)cc1)S(C)(=O)=O,"2.31 µM [falling, partial curve]",-47.7,"18.4 µM [falling, partial curve]"
O=C(Cn1nc(-c2ccccc2)ccc1=O)Nc1cccc(NC(=O)c2ccccn2)c1,–,-59.6,"7.31 µM [falling, partial curve]"

SMILES,AC50 [1],cell number change [%],AC50 [2]
COc1ccc(C(=O)CCC(=O)Nc2cccc(Cl)c2)cc1,–,39.5,"29.1 µM [rising, single point]"
CCOC(=O)C(NC(C)=O)(Nc1ccc(S(=O)(=O)Nc2nccs2)cc1)C(F)(F)F (stereo not given),"4.61 µM [falling, full curve, poor fit]",-31.5,"1.03 µM [falling, full curve]"
O=C(NCc1ccc2c(c1)OCO2)c1ccc(CS(=O)(=O)c2cccc(C(F)(F)F)c2)o1,"5.8 µM [falling, partial curve]",-18.4,–
O=C(N/C(=C\c1ccccc1)C(=O)N1CCOCC1)c1ccc(Br)o1,"1.16 µM [rising, single point]",22.5,–
CCOc1ccc(S(=O)(=O)NCCC(=O)NCC(c2cccs2)N(C)C)cc1 (stereo not given),"6.51 µM [falling, single point]",-3.06,"6.51 µM [falling, single point]"
CCCCNC(=S)N=Nc1c(O)n(Cc2ccccc2)c2ccccc12,"18.4 µM [falling, single point]",-25.4,–
COc1cccc(OC)c1OCCCCc1c(C)n[nH]c1C,"0.0058 µM [rising, full curve, poor fit]",21.4,–
CC(=O)Nc1cccc(C(=O)Oc2cccc(C)c2)c1O,"11.6 µM [falling, partial curve]",-12.2,–
CCC(C)c1ccccc1N1CC(C(=O)Nc2cccc(S(=O)(=O)N3CCOCC3)c2)CC1=O (stereo not given),–,-8.74,–
Cc1cc(C(=O)CSc2nc3ccccc3c(=O)n2C)c(C)n1Cc1ccc2c(c1)OCO2,"6.51 µM [falling, single point]",-3.96,"0.58 µM [falling, full curve]"
CCc1ccc(C(C)NC(=O)c2ccc(F)cc2)cc1 (stereo not given),"1.03 µM [falling, full curve]",5.41,–
CC1Sc2ccc(S(=O)(=O)CCC(=O)NCc3ccccc3)cc2NC1=O (stereo not given),–,29.7,"4.11 µM [rising, full curve, poor fit]"
CC(C)n1c(O)c(N=NC(=O)Cc2csc(N3CCOCC3)n2)c2ccccc21,"9.2 µM [rising, partial curve]",31.4,"5.17 µM [rising, single point]"
O=C(CNC(=O)c1[nH]cnc1C(=O)N[C@@H](Cc1ccccc1)C(=O)OCc1ccccc1)OCc1ccccc1,–,8.38,–
O=C(O)C1CCN(C(=O)COc2ccc(Br)cc2)CC1,–,9.2,–
Cc1cc(C)c(-c2cc(NC(=O)COC(=O)c3ccc(C#N)cc3)n(-c3ccccc3)n2)cc1C,"1.46 µM [rising, full curve]",29.4,–
CC(C)OC(=O)CC1=NC(=O)CS1,"0.326 µM [falling, full curve]",1.66,–
CCc1c(C)sc(NC(=O)CCc2ccc(OC)cc2)c1C(N)=O,"18.4 µM [rising, partial curve]",–,–
CCCOc1ccc(-c2cn3ccccc3n2)cc1[N+](=O)[O-],"0.82 µM [rising, full curve]",3.58,"0.651 µM [falling, single point]"

# Fetched one by one from above, 3 records:
SMILES,AC50 [1],cell number change [%],AC50 [2]
CCOc1ccc(S(=O)(=O)NCCC(=O)NCC(c2cccs2)N(C)C)cc1 (stereo not given),"6.51 µM [falling, single point]",-3.06,"6.51 µM [falling, single point]"
CCOC(=O)C(NC(C)=O)(Nc1ccc(S(=O)(=O)Nc2nccs2)cc1)C(F)(F)F (stereo not given),"4.61 µM [falling, full curve, poor fit]",-31.5,"1.03 µM [falling, full curve]"
Cc1cc(C(=O)CSc2nc3ccccc3c(=O)n2C)c(C)n1Cc1ccc2c(c1)OCO2,"6.51 µM [falling, single point]",-3.96,"0.58 µM [falling, full curve]"

# Next results:

SMILES,AC50 [1],cell number change [%],AC50 [2]
CCCn1cc(SCC(=O)Nc2cc(C)on2)c2ccccc21,–,30.2,–
COC(=O)c1ccc(NC(=O)CN2C(=O)CCC2=O)cc1,–,-23.4,"0.00411 µM [falling, full curve, poor fit]"
O=C(O)/C=C/c1cn(-c2ncc(C(F)(F)F)cc2Cl)c2ccccc12,–,15.8,–
Cc1sc2ncnc(N3CCCCC3)c2c1C,–,-17.1,"0.651 µM [falling, partial curve, poor fit]"
O=C(CCc1ccccc1)N/N=C\c1cc2c(cc1Br)OCO2,"29.1 µM [falling, single point]",-38.1,"32.6 µM [falling, single point]"
CC1CCN(C(=O)CCc2ccc(Oc3cc([N+](=O)[O-])cc([N+](=O)[O-])c3)cc2)CC1,"29.1 µM [rising, partial curve, poor fit]",119,"29.1 µM [rising, partial curve, poor fit]"
CC/C(=N/Nc1cccc(Cl)c1)c1cnnc(SC)n1,"0.0231 µM [falling, full curve, poor fit]",-24.9,"0.326 µM [falling, full curve, poor fit]"
O=C(O)c1ccc2nc(-c3ccccc3)sc2c1,"4.61 µM [rising, full curve, poor fit]",10.9,–
Cc1ccsc1C(=O)N1CC(=O)Nc2ccccc21,"0.00517 µM [rising, full curve, poor fit]",10.7,–
Cc1ccc(S(=O)(=O)NCc2cn3ccsc3n2)c(C)c1,–,-14.6,–
NS(=O)(=O)c1ccc(N2N=C(c3ccc(Br)cc3)CC2c2ccc(F)cc2)cc1 (stereo not given),"29.1 µM [falling, single point]",-83.9,"23.1 µM [falling, single point]"
Cc1ccc(CN2CC(C(=O)N3CCN(S(=O)(=O)c4ccccc4)CC3)CC2=O)cc1 (stereo not given),–,18.5,–
Cc1cc(C)n(-c2nc(NCC3CCCO3)c3c4c(sc3n2)COC(C)(C)C4)n1 (stereo not given),"0.58 µM [rising, single point]",–,"1.3 µM [rising, full curve]"
COc1cc2c(cc1NC(=O)c1cccnc1)oc1ccccc12,"1.64 µM [rising, partial curve]",92.2,"3.26 µM [rising, full curve]"
COc1ncccc1C(=O)N1CCCC(C(=O)c2cccc(OC(C)C)c2)C1 (stereo not given),"23.1 µM [falling, single point]",-35.4,"29.1 µM [falling, single point]"
Cc1c(NC(=O)c2nn(CC(C)C)c(=O)c3ccccc23)c(=O)n(-c2ccccc2)n1C,"0.291 µM [falling, full curve]",-33.9,"20.6 µM [falling, single point]"
CC(=O)c1ccc(NC(=O)[C@@H]2CCCN2C2=NS(=O)(=O)c3ccccc32)cc1,"13 µM [rising, partial curve, poor fit]",16.7,–
Cc1sc2ncnc(N3CCN(C(=O)c4ccco4)CC3)c2c1C,–,-34.2,"20.6 µM [falling, single point]"

# Source: PubChem BioAssay AID2685 (National Center for Advancing Translational Sciences (NCATS), 2010)
